From PubChem BioAssay AID445 (National Center for Advancing Translational Sciences (NCATS), 2006)
This is one part of the list. Further columns of the screen follow, without active or inactive calls. Most of these compounds were active or inconclusive in the main read-out, so they are no random draw. Potencies come from curve fits of mixed quality, noted in brackets.

Assay: IkB Signaling
Conditions: ABC-DLBCL IkBa-CBG/CBR dual luciferase ratio (green luciferase fused to IkBa over red control in OCI-Ly3 lymphoma cells), 4 h
Outline: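 Luminescence ratio of IκBα-fused green versus native red beetle luciferase in OCI-Ly3 cells, 4 h post-doxycycline with compound; red signal alone, scaled from basal (0%) to zero light (-100%), flagged nonspecific or cytotoxic effects.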

[1] = measured here: control luc red channel unless noted

Structure (SMILES): CC(Oc1ccc(Cl)cc1Cl)c1nc(-c2ccc(NC(=O)c3cccnc3)cc2)no1 (stereo not given)
- AC50 [1]: 3.16 µM [falling, full curve, poor fit]

Structure (SMILES): CCOc1ccc(NC(=O)CSC2=Nc3ccccc3C3=NC(CC(=O)NCc4ccco4)C(=O)N23)cc1 (stereo not given)
- AC50 [1]: 5.01 µM [falling, partial curve]

Structure (SMILES): Cc1cc2ccccc2n1CCNC(=O)c1cccc(Cl)c1
- AC50 [1]: 31.6 µM [falling, single point]

Structure (SMILES): Cn1c(CNc2cccc(Cl)c2)nnc1SCC(=O)OC1CCCCC1
- AC50 [1]: 25.1 µM [falling, single point]

Structure (SMILES): CC(C)c1ccc(NC(=O)c2cc(S(=O)(=O)NCc3ccccc3Cl)ccc2F)cc1
- AC50 [1]: 15.8 µM [falling, partial curve]

Structure (SMILES): Cc1ccc(-c2cc(C(=O)N3CCN(C(=O)c4ccco4)CC3)no2)cc1
- AC50 [1]: 20 µM [falling, partial curve]

Structure (SMILES): N#Cc1c[nH]n2c(NC3CCCC3)c(-c3cccc(Cl)c3)nc12
- AC50 [1]: 25.1 µM [falling, single point]

Structure (SMILES): Cc1ccc(N(CC(=O)Nc2ccc(C)c(F)c2)S(=O)(=O)c2c(C)n[nH]c2C)cc1
- AC50 [1]: 20 µM [falling, partial curve]

Structure (SMILES): CCOc1cc(C(=O)N2CCc3c([nH]c4ccccc34)C2c2ccccc2)cc(OCC)c1OCC (stereo not given)
- AC50 [1]: 0.251 µM [falling, full curve, poor fit]

Structure (SMILES): COc1ccc(C)cc1NC(=O)Cn1c(=O)ccc2cc(S(=O)(=O)N3CCCC3)ccc21
- AC50 [1]: 0.316 µM [falling, full curve]

Structure (SMILES): CN(C)c1nc(Oc2ccc(C(=O)OCC(=O)Nc3ccccc3)cc2)nc(N(C)C)n1
- AC50 [1]: 7.94 µM [falling, partial curve]

Structure (SMILES): CCCCOc1ccccc1NC(=O)CC1SC(=NCC)N(CC)C1=O (stereo not given)
- AC50 [1]: 12.6 µM [falling, partial curve]

Structure (SMILES): Cc1ccc(S(=O)(=O)c2nc(-c3ccco3)oc2SCC(C)C)cc1
- AC50 [1]: 10 µM [falling, partial curve, poor fit]

Structure (SMILES): O=C(Cc1ccc(NC(=O)N2CCCCc3ccccc32)cc1)NCc1ccccc1
- AC50 [1]: 10 µM [falling, partial curve]

Structure (SMILES): CCCCn1cc(S(=O)(=O)c2ccc(F)cc2)c(=O)c2ccccc21
- AC50 [1]: 15.8 µM [falling, partial curve]

Structure (SMILES): COc1cccc(NC(=O)Cc2cn(C)c3ccccc23)c1
- AC50 [1]: 0.316 µM [falling, partial curve]

Structure (SMILES): COc1ccc(Cn2c(SCC(N)=O)nc3c(sc4ccccc43)c2=O)cc1
- AC50 (measured here: IkB-luc green channel): 39.8 µM [rising, single point]
- AC50 (measured here: control luc red channel): 5.01 µM [rising, full curve]

Structure (SMILES): Cc1cnc2c(c1SCC(=O)Nc1ccc(F)cc1F)c(=O)n(C)c(=O)n2C
- AC50 [1]: 39.8 µM [falling, single point]

Structure (SMILES): c1ccc(OCCSc2ncnc3nc[nH]c23)cc1
- AC50 [1]: 12.6 µM [falling, partial curve]

Structure (SMILES): COc1ccc(N(Cc2cccs2)C(=O)COc2ccc(C(C)C)cc2)cc1
- AC50 [1]: 12.6 µM [falling, partial curve]

Structure (SMILES): CN(C)c1ccc(CN(CC2CCCO2)C(=O)c2ccc(Br)cc2)cc1 (stereo not given)
- AC50 [1]: 39.8 µM [falling, single point]

Structure (SMILES): Cc1ccc(-n2c(=O)c3ccc(C(=O)NCc4ccccc4Cl)cc3n(CC(=O)Nc3cccc(F)c3)c2=O)cc1
- AC50 [1]: 10 µM [falling, partial curve]

Structure (SMILES): Cc1cc(NC(=O)Cn2nc(C)n3cccc3c2=O)ccc1Br
- AC50 [1]: 7.94 µM [falling, partial curve, poor fit]

Structure (SMILES): CCOC(=O)c1c(C)[nH]c(C(=O)OC/C(O)=C(\C#N)c2nc3ccccc3[nH]2)c1C
- AC50 [1]: 3.98 µM [falling, full curve]

Structure (SMILES): Cn1c(=O)n(-c2cccc(Cl)c2)c(=O)c2sc3ccccc3c21
- AC50 [1]: 15.8 µM [rising, single point]

Structure (SMILES): CCN(CC)CCCNC(=O)c1cc2c(-c3ccc(Cl)cc3)nn(C)c2s1
- AC50 [1]: 25.1 µM [rising, single point] [measured here: IkB-luc green channel]

Structure (SMILES): CCCCN1C(=O)CN(C2CCCCC2)C(=O)C1c1ccc(OC(C)C)c(OC)c1 (stereo not given)
- AC50 [1]: 39.8 µM [falling, partial curve, poor fit]

Structure (SMILES): Cc1cccc(-n2ncc(C(=O)NCc3ccccn3)c2C2CCN(C(=O)OC(C)(C)C)CC2)c1
- AC50 [1]: 15.8 µM [falling, partial curve]

Structure (SMILES): c1ccc2sc(-c3ccc4c(c3)OCO4)nc2c1
- AC50 [1]: 15.8 µM [falling, partial curve]

Structure (SMILES): CCOc1ccc(Br)cc1CNCCSc1nnnn1-c1ccccc1
- AC50 [1]: 31.6 µM [falling, single point]

Structure (SMILES): CC(C)(C)OC(=O)N1CCC(c2c(C(=O)Nc3ccc4c(c3)OCCO4)cnn2-c2ccccc2)CC1
- AC50 [1]: 31.6 µM [falling, partial curve]

Structure (SMILES): COc1ccc(CNC(=O)c2cc3c(s2)-c2c(C)cccc2OC3)cc1
- AC50 [1]: 7.94 µM [falling, partial curve]

Structure (SMILES): Cc1ccc(C)c(NC(=O)C(=O)NCCc2csc3nc(-c4ccccc4C)nn23)c1
- AC50 [1]: 7.94 µM [falling, partial curve]

Structure (SMILES): COc1cccc(CNC(=O)CN2C(=O)COc3ccc(S(=O)(=O)Nc4ccccc4)cc32)c1
- AC50 [1]: 25.1 µM [falling, single point]

Structure (SMILES): COc1ccc(CNC(=O)C2CCN(C(=O)N3CC(C)Oc4ccc(C)cc43)CC2)cc1 (stereo not given)
- AC50 [1]: 12.6 µM [falling, partial curve]

Structure (SMILES): O=C(Nc1ccc(Cl)cc1)c1cc(S(=O)(=O)N2CCc3ccccc32)ccc1F
- AC50 [1]: 3.98 µM [falling, full curve]

Structure (SMILES): CCOc1ccc(C(=O)Nc2cc(-c3cn4cccnc4n3)ccc2C)cc1OCC
- AC50 [1]: 3.16 µM [rising, partial curve]

Structure (SMILES): Cc1cc(C)cc(NC(=O)C2CCC(CNS(=O)(=O)c3ccc4c(c3)C(C)(C)C(=O)N4C)CC2)c1 (stereo not given)
- AC50 [1]: 25.1 µM [falling, partial curve]

Structure (SMILES): CCOC(=O)C1CCCN(Cc2nc(N)nc(Nc3ccc(OC)cc3)n2)C1 (stereo not given)
- AC50 [1]: 12.6 µM [falling, partial curve]
